Some of the results follow. Most entries show no effect beyond the scatter of the controls.

By UniProt entry, the sequences of proteins in these tests, tags left out. Where a name states a change or a piece, a line headed by the entry shows the natural chain unless it says otherwise.
UniProt G2XKQ0: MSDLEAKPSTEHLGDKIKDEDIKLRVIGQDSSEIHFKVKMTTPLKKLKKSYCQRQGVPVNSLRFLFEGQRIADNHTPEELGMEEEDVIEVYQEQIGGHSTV
UniProt O14709: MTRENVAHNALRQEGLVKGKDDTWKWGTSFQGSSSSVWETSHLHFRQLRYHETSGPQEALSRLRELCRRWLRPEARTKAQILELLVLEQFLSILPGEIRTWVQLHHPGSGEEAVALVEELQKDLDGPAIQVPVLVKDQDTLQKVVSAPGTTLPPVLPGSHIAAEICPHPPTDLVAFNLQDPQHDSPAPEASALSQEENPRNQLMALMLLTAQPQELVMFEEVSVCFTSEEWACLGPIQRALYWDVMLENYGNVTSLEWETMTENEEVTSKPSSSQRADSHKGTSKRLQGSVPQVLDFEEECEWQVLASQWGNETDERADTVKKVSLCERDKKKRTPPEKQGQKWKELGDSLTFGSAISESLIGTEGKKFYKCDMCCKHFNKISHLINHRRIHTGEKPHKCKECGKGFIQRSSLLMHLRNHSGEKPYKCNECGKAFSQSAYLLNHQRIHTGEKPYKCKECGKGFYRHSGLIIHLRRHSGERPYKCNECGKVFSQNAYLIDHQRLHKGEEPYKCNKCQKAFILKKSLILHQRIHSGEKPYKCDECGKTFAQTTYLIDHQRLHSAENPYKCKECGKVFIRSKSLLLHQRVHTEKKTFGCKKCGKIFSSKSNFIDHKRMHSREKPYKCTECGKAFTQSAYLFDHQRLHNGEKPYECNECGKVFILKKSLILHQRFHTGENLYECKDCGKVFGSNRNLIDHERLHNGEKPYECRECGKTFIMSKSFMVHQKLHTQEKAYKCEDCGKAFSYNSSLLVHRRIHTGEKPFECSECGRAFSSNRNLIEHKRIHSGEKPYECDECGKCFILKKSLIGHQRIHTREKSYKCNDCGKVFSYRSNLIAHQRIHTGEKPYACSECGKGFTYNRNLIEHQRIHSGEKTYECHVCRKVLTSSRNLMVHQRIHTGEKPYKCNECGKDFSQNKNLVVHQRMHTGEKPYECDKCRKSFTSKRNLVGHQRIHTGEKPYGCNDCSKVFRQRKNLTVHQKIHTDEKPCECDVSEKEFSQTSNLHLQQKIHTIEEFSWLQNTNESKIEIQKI
UniProt A6NFY7: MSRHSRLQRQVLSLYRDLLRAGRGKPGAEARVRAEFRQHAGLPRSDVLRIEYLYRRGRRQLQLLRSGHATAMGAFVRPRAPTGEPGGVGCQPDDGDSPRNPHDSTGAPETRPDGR
UniProt O15258: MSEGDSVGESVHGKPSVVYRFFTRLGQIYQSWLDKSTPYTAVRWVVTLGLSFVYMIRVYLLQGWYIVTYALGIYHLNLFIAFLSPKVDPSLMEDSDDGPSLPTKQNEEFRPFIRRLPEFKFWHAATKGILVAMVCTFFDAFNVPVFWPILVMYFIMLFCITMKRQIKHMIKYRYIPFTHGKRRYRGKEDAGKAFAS
UniProt O14647: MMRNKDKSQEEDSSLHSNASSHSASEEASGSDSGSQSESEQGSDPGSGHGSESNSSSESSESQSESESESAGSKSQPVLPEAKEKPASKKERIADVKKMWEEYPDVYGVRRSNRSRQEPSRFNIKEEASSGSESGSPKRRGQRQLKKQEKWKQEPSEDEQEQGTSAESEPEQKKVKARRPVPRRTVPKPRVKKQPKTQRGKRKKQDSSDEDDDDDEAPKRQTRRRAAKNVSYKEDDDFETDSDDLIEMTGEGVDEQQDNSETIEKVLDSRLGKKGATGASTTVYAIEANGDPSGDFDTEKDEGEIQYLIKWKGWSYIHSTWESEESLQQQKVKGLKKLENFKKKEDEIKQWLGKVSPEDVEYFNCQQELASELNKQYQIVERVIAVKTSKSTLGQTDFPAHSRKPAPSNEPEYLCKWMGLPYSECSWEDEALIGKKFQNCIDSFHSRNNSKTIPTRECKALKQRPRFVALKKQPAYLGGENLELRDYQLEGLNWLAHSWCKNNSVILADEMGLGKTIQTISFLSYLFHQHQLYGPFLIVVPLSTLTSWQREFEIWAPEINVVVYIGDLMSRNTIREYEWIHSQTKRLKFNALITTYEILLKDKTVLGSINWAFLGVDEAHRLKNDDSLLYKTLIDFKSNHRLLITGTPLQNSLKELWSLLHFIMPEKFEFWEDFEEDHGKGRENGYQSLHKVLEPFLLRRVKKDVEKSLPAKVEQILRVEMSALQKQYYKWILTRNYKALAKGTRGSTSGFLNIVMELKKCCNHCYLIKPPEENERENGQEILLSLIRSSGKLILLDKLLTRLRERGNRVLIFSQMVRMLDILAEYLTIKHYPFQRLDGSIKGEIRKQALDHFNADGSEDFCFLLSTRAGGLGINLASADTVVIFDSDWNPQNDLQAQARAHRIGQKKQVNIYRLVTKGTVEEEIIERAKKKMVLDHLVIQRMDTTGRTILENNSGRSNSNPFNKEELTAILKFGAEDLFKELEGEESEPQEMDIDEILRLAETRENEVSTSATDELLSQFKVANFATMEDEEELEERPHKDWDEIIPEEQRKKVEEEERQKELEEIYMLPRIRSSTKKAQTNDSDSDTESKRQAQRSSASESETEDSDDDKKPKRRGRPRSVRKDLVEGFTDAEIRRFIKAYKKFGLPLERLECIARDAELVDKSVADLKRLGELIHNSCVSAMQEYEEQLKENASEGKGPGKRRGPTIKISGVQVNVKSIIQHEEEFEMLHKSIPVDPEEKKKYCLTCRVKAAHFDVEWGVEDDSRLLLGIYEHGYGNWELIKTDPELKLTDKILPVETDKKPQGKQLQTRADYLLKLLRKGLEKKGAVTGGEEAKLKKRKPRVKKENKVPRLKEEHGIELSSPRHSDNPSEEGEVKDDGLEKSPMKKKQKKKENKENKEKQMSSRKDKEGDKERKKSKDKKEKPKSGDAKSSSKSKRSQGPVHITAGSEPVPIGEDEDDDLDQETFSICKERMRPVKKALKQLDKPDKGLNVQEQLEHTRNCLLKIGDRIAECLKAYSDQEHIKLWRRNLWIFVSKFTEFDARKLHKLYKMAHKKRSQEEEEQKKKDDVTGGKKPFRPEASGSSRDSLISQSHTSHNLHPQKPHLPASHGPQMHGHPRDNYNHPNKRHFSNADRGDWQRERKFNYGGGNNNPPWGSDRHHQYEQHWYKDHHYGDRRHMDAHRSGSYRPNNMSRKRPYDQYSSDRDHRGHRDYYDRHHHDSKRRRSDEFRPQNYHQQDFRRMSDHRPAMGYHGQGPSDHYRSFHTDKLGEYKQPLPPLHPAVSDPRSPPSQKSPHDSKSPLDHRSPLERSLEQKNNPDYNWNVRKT
UniProt O00562: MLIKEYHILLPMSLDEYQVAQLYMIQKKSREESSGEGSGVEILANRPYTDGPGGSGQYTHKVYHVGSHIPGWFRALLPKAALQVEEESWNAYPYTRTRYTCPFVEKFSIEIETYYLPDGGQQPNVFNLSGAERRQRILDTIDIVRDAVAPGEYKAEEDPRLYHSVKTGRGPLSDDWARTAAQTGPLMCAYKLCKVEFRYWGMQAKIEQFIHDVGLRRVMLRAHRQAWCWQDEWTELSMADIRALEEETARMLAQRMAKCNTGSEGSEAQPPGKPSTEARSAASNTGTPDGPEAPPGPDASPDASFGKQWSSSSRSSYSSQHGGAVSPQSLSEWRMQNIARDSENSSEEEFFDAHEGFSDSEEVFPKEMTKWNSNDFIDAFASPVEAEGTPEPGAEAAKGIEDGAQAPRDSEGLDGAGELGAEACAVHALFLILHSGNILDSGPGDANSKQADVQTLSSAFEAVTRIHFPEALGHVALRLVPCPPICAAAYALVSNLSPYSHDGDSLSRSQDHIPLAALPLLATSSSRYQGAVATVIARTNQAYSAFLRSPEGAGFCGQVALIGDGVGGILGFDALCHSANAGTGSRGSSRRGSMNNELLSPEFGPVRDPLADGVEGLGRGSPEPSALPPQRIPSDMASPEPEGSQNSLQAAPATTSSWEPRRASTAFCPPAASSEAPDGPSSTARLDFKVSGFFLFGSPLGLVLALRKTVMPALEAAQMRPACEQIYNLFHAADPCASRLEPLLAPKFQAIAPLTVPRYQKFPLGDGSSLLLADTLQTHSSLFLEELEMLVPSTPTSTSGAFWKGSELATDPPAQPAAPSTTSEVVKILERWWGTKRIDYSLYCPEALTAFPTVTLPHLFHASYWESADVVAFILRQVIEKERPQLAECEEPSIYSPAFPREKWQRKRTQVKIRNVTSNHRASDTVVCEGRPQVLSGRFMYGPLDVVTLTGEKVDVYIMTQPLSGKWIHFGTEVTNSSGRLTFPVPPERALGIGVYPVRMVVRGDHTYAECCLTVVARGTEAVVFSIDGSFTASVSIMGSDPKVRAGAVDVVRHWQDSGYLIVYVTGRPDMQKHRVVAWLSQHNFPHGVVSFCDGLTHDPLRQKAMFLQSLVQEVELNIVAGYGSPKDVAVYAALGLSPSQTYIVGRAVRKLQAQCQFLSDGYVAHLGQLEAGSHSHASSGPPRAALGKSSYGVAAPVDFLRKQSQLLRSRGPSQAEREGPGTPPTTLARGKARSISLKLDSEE
UniProt A6QL64: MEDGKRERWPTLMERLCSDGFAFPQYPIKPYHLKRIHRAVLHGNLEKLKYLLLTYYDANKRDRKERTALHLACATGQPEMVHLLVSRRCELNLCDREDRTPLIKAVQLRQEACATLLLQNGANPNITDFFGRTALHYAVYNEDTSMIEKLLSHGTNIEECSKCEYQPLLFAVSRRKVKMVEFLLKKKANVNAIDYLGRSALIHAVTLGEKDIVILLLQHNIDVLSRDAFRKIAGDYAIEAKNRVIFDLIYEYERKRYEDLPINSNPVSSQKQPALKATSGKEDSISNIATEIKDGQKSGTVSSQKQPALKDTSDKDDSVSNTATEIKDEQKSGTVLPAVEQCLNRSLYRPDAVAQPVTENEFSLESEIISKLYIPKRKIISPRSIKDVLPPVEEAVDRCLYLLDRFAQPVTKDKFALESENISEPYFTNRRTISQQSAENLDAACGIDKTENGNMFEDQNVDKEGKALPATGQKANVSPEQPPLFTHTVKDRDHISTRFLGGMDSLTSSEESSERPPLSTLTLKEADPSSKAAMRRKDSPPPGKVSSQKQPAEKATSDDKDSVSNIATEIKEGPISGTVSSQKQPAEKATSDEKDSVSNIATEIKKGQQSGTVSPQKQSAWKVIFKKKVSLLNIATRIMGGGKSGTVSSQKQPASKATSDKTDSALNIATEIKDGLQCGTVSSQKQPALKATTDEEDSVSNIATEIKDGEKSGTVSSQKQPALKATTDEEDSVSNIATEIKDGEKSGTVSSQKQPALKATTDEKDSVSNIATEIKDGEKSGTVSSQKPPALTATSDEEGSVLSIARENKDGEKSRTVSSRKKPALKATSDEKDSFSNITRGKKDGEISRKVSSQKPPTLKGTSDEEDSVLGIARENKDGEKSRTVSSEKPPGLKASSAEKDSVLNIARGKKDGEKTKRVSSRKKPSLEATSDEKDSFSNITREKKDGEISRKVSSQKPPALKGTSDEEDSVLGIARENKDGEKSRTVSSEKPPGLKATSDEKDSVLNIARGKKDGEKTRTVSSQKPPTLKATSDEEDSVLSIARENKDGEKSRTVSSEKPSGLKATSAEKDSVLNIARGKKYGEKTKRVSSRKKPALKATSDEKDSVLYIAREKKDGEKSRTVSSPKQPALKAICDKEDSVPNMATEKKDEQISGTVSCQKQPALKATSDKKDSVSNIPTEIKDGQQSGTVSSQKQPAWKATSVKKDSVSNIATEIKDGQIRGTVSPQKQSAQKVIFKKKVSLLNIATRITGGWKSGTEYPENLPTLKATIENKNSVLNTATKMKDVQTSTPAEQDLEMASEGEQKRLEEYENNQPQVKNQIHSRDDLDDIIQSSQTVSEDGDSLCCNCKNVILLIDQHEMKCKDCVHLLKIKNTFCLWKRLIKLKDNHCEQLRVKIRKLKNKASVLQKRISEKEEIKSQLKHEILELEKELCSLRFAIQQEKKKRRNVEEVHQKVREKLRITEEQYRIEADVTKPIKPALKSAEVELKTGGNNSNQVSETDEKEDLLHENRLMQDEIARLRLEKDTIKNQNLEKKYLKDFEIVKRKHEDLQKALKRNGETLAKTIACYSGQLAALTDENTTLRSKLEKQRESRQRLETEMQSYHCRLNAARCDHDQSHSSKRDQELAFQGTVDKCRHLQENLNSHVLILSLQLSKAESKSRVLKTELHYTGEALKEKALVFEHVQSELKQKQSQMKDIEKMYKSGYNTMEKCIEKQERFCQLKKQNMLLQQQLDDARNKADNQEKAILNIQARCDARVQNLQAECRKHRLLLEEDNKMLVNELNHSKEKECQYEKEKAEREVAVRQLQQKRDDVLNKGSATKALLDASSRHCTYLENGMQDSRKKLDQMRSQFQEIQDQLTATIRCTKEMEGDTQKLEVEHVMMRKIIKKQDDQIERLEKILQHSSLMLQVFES

Compound in this test: CN[C@@H]1C[C@H]2O[C@@](C)([C@@H]1OC)n1c3ccccc3c3c4c(c5c6ccccc6n2c5c31)C(=O)NC4 [staurosporine]
Nature of the test: log2 fold change of tryptic peptide abundance, ligand vs vehicle (limited proteolysis) (log2 ratio); higher = more trypsin-susceptible (destabilized). As to conditions: ligand concentration: 20 uM; sample: K562 cleared lysate; digestion: 4 min, 22 C (HT-PELSA RT4min, Orbitrap Astral).
Consider “UniProt G2XKQ0 (peptide sequence: VIGQDSSEIHFKVK, peptide start residue: 26)”, for which the log2 fold change is -0.244.
“UniProt O14709 (peptide sequence: IHTDEKPCECDVSEK, peptide start residue: 979)”: the log2 fold change is -0.279.
In the case of “PPM1G (peptide sequence: NLPPEEQMISALPDIK, peptide start residue: 410) (UniProt O15355)”, the log2 fold change worked out at 0.209.
On to “HDAC3 (peptide sequence: FHSEDYIDFLQR, peptide start residue: 61) (UniProt O15379)”, for which the log2 fold change was -0.206.
Regarding “UniProt A6NFY7 (peptide sequence: SGHATAMGAFVRPR, peptide start residue: 66)”, the log2 fold change came out at 0.334.
For the target “RER1 (peptide sequence: YIPFTHGKR, peptide start residue: 174) (UniProt O15258)”, the log2 fold change worked out at 0.227.
“CHD2 (peptide sequence: QKELEEIYMLPR, peptide start residue: 1061) (UniProt O14647)”: the log2 fold change was -0.178.
As for “PITPNM1 (peptide sequence: EGPGTPPTTLAR, peptide start residue: 1219) (UniProt O00562)”, the figure is 0.212; as for “GEMIN2 (peptide sequence: TPQEYLR, peptide start residue: 48) (UniProt O14893)”, -0.0703.
As for “LBA1 (peptide sequence: ALESEKDER, peptide start residue: 2320) (UniProt O15050)”, the figure is 0.654.
In the case of “ANKRD36 (peptide sequence: CLYLLDR, peptide start residue: 433) (UniProt A6QL64)” it was 0.323.
